Test results: publication PMC10866537
No constants are given. Whether binding was seen depends on the method and setting. Some entries that bind do so weakly or less than the wild type. Tags and fused reporters may be left off the sequences shown.

Protein sequences, listed by entry. Tags and fused reporters are not part of them. Residues count along the entry.
UniProt Q07011, residues 24-255: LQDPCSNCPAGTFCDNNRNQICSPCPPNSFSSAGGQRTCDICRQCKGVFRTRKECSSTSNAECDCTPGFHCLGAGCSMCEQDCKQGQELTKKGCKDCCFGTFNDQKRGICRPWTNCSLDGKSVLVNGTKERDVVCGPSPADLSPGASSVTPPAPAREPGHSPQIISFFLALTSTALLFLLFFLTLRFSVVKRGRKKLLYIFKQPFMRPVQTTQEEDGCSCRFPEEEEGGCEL

T1: mouse siglec-4 expressed in HEK293 cells (mouse) (UniProt P20917)
T1 sequence: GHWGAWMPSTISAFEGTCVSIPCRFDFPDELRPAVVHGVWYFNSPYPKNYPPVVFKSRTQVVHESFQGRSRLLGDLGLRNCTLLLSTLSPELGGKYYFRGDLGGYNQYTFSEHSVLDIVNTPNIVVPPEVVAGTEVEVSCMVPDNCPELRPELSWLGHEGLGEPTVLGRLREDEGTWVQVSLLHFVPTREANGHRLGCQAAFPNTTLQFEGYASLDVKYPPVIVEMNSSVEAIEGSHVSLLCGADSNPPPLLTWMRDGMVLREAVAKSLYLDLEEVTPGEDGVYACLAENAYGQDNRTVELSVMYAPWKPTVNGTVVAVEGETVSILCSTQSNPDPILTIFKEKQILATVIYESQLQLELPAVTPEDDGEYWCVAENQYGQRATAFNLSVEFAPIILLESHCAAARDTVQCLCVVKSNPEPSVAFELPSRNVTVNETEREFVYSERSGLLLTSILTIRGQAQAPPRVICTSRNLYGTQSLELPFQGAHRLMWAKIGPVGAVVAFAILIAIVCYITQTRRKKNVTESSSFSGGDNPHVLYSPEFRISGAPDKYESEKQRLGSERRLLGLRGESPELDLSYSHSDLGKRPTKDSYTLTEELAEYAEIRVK


Tests used:
[1] = target: 4-1BB on activated primary human T cells (human (endogenous in primary T cells)) (UniProt Q07011); assay: flow cytometry on cells; siglec-4–Fc on resting or anti-CD3/CD28-activated primary human T cells after Fc Block; AF647 anti-human IgG; also after 4-1BB or nonspecific siRNA; only the binder purified
[2] = target: 4-1BB on activated primary human T cells (human (endogenous in primary T cells)) (UniProt Q07011); assay: flow cytometry on cells; competition: 0.4 μM siglec-4–Fc preincubated with 0.4 to 10 μM soluble 4-1BB–HIS at RT 30 min, then on activated T cells on ice 30 min; AF647 anti-human IgG; only the binder purified
[3] = target: T1, mouse siglec-4 expressed in HEK293 cells (mouse); assay: flow cytometry on cells; 1 μg m4-1BB–Fc on transfected HEK293 cells, AF647 anti-human IgG; only the binder purified

| binding [1] | binding [2] | binding [3] | Binder |
| --- | --- | --- | --- |
| binds | binds |  | human siglec-4–Fc protein (Fc fusion, UniProt P20916 20-516) GHWGAWMPSSISAFEGTCVSIPCRFDFPDELRPAVVHGVWYFNSPYPKNYPPVVFKSRTQVVHESFQGRSRLLGDLGLRNCTLLLSNVSPELGGKYYFRGDLGGYNQYTFSEHSVLDIVNTPNIVVPPEVVAGTEVEVSCMVPDNCPELRPELSWLGHEGLGEPAVLGRLREDEGTWVQVSLLHFVPTREANGHRLGCQASFPNTTLQFEGYASMDVKYPPVIVEMNSSVEAIEGSHVSLLCGADSNPPPLLTWMRDGTVLREAVAESLLLELEEVTPAEDGVYACLAENAYGQDNRTVGLSVMYAPWKPTVNGTMVAVEGETVSILCSTQSNPDPILTIFKEKQILSTVIYESELQLELPAVSPEDDGEYWCVAENQYGQRATAFNLSVEFAPVLLLESHCAAARDTVQCLCVVKSNPEPSVAFELPSRNVTVNESEREFVYSERSGLVLTSILTLRGQAQAPPRVICTARNLYGAKSLELPFQGAHRLMWAKIGP |
|  |  | binds | mouse 4-1BB–Fc protein (Fc fusion, UniProt P20334 24-187) VQNSCDNCQPGTFCRKYNPVCKSCPPSTFSSIGGQPNCNICRVCAGYFRFKKFCSSTHNAECECIEGFHCLGPQCTRCEKDCRPGQELTKQGCKTCSLGTFNDQNGTGVCRPWTNCSLDGRSVLKTGTTEKDVVCGPPVVSFSPSTTISVTPEGGPGGHSLQVL |
